Results are given in words; binding and its absence hold for the method and conditions named. Binding seen in cells or lysates may run through a third protein. Sequences can lack the tags named with a protein.

Sequences of proteins named here, by UniProt entry; tags and fusion partners are left off.
UniProt P04618: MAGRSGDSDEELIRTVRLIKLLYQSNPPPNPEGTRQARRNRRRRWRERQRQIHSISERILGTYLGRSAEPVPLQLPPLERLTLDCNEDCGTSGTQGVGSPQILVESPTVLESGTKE
UniProt P04608: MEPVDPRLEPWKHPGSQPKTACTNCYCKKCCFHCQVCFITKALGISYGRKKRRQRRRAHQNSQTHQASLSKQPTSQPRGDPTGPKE

The test addresses T1, HA-tagged full-length human breast carcinoma-associated protein (BCA3) (human) (UniProt Q9NQ31).
T1 sequence: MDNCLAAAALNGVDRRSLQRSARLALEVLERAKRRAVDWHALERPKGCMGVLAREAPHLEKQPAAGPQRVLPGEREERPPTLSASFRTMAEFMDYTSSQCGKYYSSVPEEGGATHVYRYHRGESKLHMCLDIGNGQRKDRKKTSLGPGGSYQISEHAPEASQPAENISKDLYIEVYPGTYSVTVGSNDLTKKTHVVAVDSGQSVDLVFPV
The test is described as follows: co-IP.
HIV-1 Rev (from UniProt P04618 1-116): the binding result was “no binding”.
The same measure for HIV-1 Tat (from UniProt P04608 1-86): “no binding”; for “HIV-1 p6 (from UniProt P04591 449-500) (domain or fragment)”: “no binding”.

Values taken from paper PMC5923506.
